Experimental data reported in patent US10117916B2, “Peptides and combination of peptides for use in immunotherapy against CLL and other cancers” (immatics biotechnologies GmbH, priority 2015, dated 2018).

System: NSCLC tumor samples
Test: Absolute quantitation of TUMAP copies per cell by nanoLC-MS/MS
Design: species or system human
Details: NSCLC tumor samples (so in the source)

| Substance | Copy Number Category (median number of copies per cell) |
| --- | --- |
| 62 (GIIDGSPRL; listed as Homo sapiens) [compound 62] | + (<100 = +) |
| 153 (SLLAELHVL; listed as Homo sapiens) [compound 153] | ++ (> = 100 = ++) |
